Some of the results follow.
What was measured:
Assay in all cases: log2 fold change, soluble protein after heating vs DMSO (PISA); higher = thermal stabilisation; K562 lysate, 10 uM; active = over 0.2 and 3.5 SD of the protein, either way, in both replicates (recomputed)
[1] = compound: CN1CC[C@H](c2c(O)cc(O)c3c(=O)cc(-c4ccccc4Cl)oc23)[C@H](O)C1 [alvocidib]
Summary of the method: (§1)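 K562 pellets were dounce-homogenised in PBS pH 7.4 containing 1 mM MgCl2, and the crude extract, at 1 mg/mL protein, was exposed to 10 μM compound for 30 min. Aliquots were heated for 3 min across 48°C-58°C, pooled, brought to 0.5% NP-40 at 4°C and spun at 21,000xg for 90 min, with the supernatant taken as soluble protein. TMTpro 16plex LC-MS/MS with equalised channel sums quantified that protein. Values are log-two fold changes in thermal stability relative to solvent controls, taken from duplicates.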

Protein sequences, listed by entry. Tags and fused reporters are not part of them. Lines headed by an entry give the natural chain unless they say otherwise; changes in a name come on top.
UniProt Q96T37: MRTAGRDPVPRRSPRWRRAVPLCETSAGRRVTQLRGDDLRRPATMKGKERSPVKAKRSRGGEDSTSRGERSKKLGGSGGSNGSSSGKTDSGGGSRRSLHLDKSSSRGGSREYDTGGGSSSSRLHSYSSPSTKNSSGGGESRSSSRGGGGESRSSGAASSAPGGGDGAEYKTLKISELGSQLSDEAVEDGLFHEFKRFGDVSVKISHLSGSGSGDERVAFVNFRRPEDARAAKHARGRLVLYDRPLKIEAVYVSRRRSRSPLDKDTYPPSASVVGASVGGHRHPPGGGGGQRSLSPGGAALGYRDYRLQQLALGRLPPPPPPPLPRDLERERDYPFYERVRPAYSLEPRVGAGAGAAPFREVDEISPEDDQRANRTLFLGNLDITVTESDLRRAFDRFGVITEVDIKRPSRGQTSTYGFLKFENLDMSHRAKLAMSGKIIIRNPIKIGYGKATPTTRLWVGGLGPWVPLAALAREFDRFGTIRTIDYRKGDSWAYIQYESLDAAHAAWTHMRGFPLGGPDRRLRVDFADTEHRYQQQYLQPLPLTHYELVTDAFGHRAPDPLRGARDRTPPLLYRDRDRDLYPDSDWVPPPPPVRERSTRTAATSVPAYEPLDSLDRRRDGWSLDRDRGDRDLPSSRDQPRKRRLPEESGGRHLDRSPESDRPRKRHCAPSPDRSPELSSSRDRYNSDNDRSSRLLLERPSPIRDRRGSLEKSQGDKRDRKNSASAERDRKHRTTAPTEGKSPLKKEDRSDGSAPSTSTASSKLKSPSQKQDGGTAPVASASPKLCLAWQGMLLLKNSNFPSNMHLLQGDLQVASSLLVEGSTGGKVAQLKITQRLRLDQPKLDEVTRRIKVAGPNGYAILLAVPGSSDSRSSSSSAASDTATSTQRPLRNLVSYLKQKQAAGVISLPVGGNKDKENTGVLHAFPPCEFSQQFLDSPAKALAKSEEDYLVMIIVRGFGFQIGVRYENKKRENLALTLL
UniProt Q6NUK4: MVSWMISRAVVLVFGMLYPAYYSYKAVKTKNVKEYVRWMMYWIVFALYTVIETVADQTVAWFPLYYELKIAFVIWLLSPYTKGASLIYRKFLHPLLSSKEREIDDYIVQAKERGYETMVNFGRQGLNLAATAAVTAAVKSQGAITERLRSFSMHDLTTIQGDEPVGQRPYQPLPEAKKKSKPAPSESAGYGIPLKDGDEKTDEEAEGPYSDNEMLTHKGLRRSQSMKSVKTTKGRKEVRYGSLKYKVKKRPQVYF
UniProt Q09028, whole entry, looked up: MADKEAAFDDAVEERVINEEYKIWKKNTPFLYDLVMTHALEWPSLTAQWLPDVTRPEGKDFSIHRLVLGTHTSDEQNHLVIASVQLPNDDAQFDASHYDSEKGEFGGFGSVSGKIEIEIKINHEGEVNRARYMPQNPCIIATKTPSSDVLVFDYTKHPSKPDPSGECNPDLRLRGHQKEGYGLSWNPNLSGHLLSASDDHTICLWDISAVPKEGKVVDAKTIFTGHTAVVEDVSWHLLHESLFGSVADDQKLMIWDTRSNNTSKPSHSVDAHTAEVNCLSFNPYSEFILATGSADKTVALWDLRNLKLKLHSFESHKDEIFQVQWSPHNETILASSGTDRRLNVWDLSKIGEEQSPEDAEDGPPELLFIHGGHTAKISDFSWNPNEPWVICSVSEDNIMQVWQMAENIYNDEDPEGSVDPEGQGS
UniProt Q02161: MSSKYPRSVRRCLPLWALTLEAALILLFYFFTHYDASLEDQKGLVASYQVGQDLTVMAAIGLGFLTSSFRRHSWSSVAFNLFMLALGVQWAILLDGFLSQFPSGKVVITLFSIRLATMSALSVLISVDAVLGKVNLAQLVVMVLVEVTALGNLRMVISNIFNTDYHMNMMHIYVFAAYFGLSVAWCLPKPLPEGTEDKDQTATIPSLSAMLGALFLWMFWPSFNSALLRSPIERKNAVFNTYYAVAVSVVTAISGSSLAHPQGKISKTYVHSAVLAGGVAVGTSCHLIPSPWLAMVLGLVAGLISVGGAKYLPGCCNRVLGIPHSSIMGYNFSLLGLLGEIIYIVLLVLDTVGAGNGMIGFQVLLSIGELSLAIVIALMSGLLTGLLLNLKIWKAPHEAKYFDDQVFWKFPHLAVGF
UniProt Q08999: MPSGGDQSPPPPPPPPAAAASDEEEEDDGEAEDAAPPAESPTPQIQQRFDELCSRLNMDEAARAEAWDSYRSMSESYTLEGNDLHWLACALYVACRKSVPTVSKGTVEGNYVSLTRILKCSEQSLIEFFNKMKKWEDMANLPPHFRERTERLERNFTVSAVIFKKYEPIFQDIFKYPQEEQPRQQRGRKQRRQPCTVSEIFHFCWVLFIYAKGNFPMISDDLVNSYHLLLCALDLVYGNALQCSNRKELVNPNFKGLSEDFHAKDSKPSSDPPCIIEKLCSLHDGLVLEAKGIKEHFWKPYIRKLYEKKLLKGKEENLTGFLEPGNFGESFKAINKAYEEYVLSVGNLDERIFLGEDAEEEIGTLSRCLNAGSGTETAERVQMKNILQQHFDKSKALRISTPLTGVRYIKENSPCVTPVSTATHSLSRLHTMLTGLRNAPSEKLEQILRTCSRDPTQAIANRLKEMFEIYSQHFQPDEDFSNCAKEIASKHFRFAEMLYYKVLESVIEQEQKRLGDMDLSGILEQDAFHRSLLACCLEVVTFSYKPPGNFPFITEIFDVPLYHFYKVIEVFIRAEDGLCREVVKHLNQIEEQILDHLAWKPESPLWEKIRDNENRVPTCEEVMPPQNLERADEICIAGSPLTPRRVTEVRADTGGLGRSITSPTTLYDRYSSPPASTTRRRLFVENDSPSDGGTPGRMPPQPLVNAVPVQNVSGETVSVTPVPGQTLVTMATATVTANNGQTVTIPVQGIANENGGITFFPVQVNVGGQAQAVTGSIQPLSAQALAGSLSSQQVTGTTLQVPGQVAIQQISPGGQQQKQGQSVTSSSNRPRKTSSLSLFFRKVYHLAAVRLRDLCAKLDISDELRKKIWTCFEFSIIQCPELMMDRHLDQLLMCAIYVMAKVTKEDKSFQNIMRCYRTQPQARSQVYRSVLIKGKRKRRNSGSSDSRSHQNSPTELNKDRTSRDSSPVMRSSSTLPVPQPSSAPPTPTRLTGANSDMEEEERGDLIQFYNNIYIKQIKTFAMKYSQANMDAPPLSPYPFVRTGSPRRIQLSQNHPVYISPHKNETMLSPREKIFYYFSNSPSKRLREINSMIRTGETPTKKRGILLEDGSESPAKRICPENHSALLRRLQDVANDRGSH
UniProt Q9H4X1: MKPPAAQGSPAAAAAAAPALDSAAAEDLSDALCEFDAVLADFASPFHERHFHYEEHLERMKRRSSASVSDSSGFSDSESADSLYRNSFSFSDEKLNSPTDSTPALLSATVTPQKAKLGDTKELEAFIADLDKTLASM
UniProt Q8NC44: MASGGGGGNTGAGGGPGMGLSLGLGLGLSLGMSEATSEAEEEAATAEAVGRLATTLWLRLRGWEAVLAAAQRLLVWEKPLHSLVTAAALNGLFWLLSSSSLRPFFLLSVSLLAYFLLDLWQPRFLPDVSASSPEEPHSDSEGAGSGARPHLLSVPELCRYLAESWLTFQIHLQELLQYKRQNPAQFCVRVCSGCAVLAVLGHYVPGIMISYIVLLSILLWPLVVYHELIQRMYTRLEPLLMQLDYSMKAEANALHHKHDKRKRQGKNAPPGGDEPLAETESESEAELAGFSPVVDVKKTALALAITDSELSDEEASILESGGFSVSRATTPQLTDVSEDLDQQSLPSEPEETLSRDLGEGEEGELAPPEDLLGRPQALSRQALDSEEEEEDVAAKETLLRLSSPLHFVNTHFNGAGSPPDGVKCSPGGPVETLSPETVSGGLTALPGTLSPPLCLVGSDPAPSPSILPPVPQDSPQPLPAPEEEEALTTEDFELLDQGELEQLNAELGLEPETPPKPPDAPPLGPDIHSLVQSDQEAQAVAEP
UniProt Q8N0T1: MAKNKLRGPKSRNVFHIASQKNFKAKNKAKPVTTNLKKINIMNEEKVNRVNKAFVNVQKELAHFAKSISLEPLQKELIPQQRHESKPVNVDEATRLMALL
UniProt P62877, whole entry, looked up: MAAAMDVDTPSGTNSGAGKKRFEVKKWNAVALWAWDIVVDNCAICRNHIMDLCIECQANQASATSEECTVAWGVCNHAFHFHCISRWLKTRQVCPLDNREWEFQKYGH
UniProt Q9BWF3: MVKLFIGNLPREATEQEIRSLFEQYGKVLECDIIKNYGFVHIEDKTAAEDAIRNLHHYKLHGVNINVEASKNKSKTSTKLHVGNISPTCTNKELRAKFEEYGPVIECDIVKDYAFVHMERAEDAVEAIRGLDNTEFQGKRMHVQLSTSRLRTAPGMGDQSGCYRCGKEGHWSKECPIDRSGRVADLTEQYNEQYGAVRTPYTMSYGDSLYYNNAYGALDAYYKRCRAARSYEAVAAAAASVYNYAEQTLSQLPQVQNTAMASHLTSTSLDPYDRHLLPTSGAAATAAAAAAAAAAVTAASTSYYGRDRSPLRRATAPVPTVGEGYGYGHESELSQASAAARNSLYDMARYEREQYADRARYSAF
UniProt Q7LDG7: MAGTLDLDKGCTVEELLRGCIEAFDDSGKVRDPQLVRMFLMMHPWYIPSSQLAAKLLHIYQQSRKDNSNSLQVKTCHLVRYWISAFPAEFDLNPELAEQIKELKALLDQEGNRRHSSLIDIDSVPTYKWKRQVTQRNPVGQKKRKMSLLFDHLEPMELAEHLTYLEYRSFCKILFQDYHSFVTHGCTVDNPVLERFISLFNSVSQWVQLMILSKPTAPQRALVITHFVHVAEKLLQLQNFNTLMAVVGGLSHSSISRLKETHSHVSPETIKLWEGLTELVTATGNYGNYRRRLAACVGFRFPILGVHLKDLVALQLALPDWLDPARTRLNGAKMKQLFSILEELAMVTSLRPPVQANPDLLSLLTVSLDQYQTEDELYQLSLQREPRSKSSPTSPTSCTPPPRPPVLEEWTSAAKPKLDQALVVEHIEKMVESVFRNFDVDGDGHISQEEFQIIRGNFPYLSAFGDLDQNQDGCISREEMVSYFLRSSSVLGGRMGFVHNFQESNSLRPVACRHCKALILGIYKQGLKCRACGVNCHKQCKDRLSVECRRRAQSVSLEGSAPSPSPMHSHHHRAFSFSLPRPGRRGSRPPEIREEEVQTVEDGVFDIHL
UniProt Q15291, whole entry, looked up: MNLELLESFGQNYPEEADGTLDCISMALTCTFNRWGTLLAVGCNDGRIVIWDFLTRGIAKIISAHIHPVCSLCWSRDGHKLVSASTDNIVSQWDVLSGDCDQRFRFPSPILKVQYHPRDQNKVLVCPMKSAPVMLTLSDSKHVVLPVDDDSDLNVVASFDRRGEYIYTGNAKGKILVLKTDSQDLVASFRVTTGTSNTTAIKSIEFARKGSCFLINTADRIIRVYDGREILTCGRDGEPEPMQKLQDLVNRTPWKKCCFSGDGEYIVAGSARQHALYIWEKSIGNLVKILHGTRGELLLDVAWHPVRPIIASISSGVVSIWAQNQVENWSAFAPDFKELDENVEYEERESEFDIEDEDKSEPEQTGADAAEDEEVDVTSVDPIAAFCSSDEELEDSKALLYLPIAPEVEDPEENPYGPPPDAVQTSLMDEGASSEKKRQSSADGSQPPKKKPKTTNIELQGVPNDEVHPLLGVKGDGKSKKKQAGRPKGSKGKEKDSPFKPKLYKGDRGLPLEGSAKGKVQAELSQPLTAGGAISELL
UniProt Q8IZ40: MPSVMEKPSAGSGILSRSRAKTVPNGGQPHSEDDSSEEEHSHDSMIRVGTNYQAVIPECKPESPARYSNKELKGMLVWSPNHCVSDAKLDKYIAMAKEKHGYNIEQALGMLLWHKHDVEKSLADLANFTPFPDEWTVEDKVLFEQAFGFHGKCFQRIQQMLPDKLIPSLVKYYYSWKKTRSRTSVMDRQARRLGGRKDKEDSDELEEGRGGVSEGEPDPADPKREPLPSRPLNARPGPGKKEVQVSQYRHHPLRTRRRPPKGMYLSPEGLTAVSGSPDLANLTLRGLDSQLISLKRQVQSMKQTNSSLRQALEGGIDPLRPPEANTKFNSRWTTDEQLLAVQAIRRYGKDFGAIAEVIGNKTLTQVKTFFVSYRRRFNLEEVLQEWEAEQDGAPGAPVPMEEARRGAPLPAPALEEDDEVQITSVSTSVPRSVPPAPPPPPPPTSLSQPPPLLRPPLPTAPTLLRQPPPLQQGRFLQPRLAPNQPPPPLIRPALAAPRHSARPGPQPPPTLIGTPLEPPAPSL
UniProt Q9BQ04: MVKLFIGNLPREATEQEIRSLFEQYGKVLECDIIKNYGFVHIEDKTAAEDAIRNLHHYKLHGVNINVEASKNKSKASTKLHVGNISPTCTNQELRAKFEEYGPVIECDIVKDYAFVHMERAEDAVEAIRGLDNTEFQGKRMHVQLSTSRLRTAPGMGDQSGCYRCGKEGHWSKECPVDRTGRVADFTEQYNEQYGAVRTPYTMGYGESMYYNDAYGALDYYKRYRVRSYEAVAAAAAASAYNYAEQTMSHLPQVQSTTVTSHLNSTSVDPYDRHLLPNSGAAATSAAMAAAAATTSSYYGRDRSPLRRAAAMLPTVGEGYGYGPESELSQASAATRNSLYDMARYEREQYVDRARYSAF

[2] = compound: CN1CCc2c(c3ccccc3n2Cc2ccc(C(=O)NO)cc2)C1 [Tubastatin A]
Summary of the method: as §1

[3] = compound: CNC(=O)C1=CC=CC=C1NC2=NC(=NC=C2Cl)NC3=C(C=C(C=C3)N4CCOCC4)OC
Summary of the method: as §1

[4] = compound: CNC(=O)c1ccc(Nc2ncc(C(F)(F)F)c(NCc3nccnc3N(C)S(C)(=O)=O)n2)cc1 [defactinib]
Summary of the method: as §1

[5] = compound: CNc1nc(-c2ccc3c(N)n[nH]c3c2)cc(N2C[C@@H](C(=O)NC3CCCCC3)CC[C@H]2C)n1
Summary of the method: as §1

[6] = compound: COC(=O)N[C@@H](C)CNc1nccc(-c2cn(C(C)C)nc2-c2cc(Cl)cc(NS(C)(=O)=O)c2F)n1 [encorafenib]
Summary of the method: as §1

[7] = compound: COC(=O)[C@H](CCSC)NC(=O)C1=C(C=C(C=C1)NC[C@H](CS)N)C2=CC=CC=C2
Summary of the method: as §1

[8] = compound: COc1cc2nc(-c3cc(F)ccc3O)nc(N[C@@H]3CNC[C@H]3C(C)(C)O)c2cc1OC
Summary of the method: as §1

[9] = compound: CS(=O)(=O)CCNCc1ccc(-c2ccc3ncnc(Nc4ccc(OCc5cccc(F)c5)c(Cl)c4)c3c2)o1 [lapatinib]
Summary of the method: as §1

[10] = compound: CS(=O)(=O)N1CCN(Cc2cc3nc(-c4cccc5[nH]ncc45)nc(N4CCOCC4)c3s2)CC1 [pictilisib]
Summary of the method: as §1

[11] = compound: C[C@@H](Oc1cc(-c2cnn(C3CCNCC3)c2)cnc1N)c1c(Cl)ccc(F)c1Cl [crizotinib]
Summary of the method: as §1

[12] = compound: C[C@H](C1=CC=C(C=C1)C(=O)NC2=C3C=CNC3=NC=C2)N
Summary of the method: as §1

[13] = compound: C[C@H](Nc1ncnc2nc[nH]c12)c1cc2cccc(Cl)c2c(=O)n1-c1ccccc1 [duvelisib]
Summary of the method: as §1

[14] = compound: Cc1cc(Nc2cc(CN3CCOCC3)c3nc(C)c(Cc4ccc(Cl)cc4F)n3n2)n[nH]1 [gandotinib]
Summary of the method: as §1

[15] = compound: Cc1cc(Nc2cc(N3CCN(C)CC3)nc(Sc3ccc(NC(=O)C4CC4)cc3)n2)n[nH]1 [tozasertib]
Summary of the method: as §1

[16] = compound: Cc1ccc(-n2nc(C(C)(C)C)cc2NC(=O)Nc2ccc(OCCN3CCOCC3)c3ccccc23)cc1 [doramapimod]
Summary of the method: as §1

[17] = compound: Cc1ccc(NC(=O)c2ccc(CN3CC[C@H](N(C)C)C3)c(C(F)(F)F)c2)cc1Nc1nccc(-c2cncnc2)n1 [bafetinib]
Summary of the method: as §1

[18] = compound: Cc1cccc(CC(=O)N2CCc3c2ccc(-c2cn(C)c4ncnc(N)c24)c3F)n1
Summary of the method: as §1

[19] = compound: COc1cc(Nc2ncc3c(n2)-c2ccc(Cl)cc2C(c2c(F)cccc2OC)=NC3)ccc1C(=O)O [alisertib]
Summary of the method: as §1

[20] = compound: COc1cc2ncnc(Nc3ccc(F)c(Cl)c3)c2cc1OCCCN1CCOCC1 [gefitinib]
Summary of the method: as §1

Measured: log2 fold change

RBM15 (UniProt Q96T37)
inactive: [1] 0.246 | [2] -0.19 | [3] 0.04 | [4] 0.024 | [5] 0.035 | [6] 0.042 | [7] -0.007 | [8] -0.046 | [9] -0.015 | [10] -0.102 | [11] -0.035 | [12] -0.099 | [13] 0.05 | [14] -0.011 | [15] -0.117 | [16] 0.016 | [17] 0.137 | [18] 0.069

REEP3 (UniProt Q6NUK4)
inactive: [1] -0.006 | [2] -0.124 | [3] -0.065 | [4] -0.029 | [19] -0.039 | [8] 0.021 | [20] 0.076 | [9] -0.008 | [10] -0.034 | [11] 0.036 | [12] 0.06 | [14] -0.007 | [16] -0.012 | [17] 0.036 | [18] 0

RBBP4 isoform 4 (UniProt Q09028)
inactive: [1] -0.178 | [2] 0.108 | [19] 0.06 | [8] 0.044 | [20] 0.114 | [9] -0.122 | [12] -0.006 | [14] -0.248 | [18] -0.052

RHD (UniProt Q02161)
inactive: [1] -0.187 | [2] 0.033 | [5] 0.04 | [12] -0.187 | [13] -0.006 | [14] -0.079 | [18] -0.037

RGS3 (UniProt P49796)
inactive: [1] 0.039 | [2] 0.106 | [3] 0.001 | [19] 0.044 | [8] 0.032 | [20] 0.011 | [9] 0.05 | [10] -0.043 | [11] 0.016 | [12] -0.132 | [14] 0.265 | [16] -0.02 | [17] -0.074 | [18] 0

RBL2 (UniProt Q08999)
inactive: [1] 0.078 | [2] -0.104 | [5] 0.003 | [6] 0.045 | [7] 0.071 | [19] 0.04 | [8] 0.076 | [20] 0.04 | [9] -0.013 | [10] 0.004 | [11] -0.018 | [12] 0.004 | [13] -0.082 | [14] -0.081 | [15] -0.163 | [16] 0.044 | [17] 0.064 | [18] 0.145

RGCC (UniProt Q9H4X1)
inactive: [1] 0 | [2] -0.114 | [3] 0.136 | [4] -0.08 | [12] -0.153 | [14] 0.111 | [18] 0.025

RETREG2 (UniProt Q8NC44)
inactive: [1] -0.069 | [2] -0.025 | [3] 0 | [4] -0.12 | [6] -0.002 | [7] -0.096 | [19] -0.029 | [8] -0.007 | [20] -0.058 | [9] -0.051 | [10] -0.037 | [11] -0.074 | [12] -0.052 | [14] -0.052 | [15] 0.025 | [16] -0.005 | [17] -0.141 | [18] 0.122

RBIS (UniProt Q8N0T1)
inactive: [1] -0.042 | [2] 0.034 | [3] 0.056 | [4] 0.072 | [5] -0.025 | [6] 0.055 | [7] -0.036 | [10] 0.014 | [11] -0.04 | [12] -0.089 | [13] 0.005 | [14] 0.143 | [15] -0.033 | [16] 0.087 | [17] 0 | [18] 0.101

RBX1 (UniProt P62877)
inactive: [2] 0.09 | [3] 0.037 | [4] 0.025 | [5] 0.035 | [6] -0.025 | [7] -0.026 | [19] 0.079 | [8] -0.187 | [20] -0.045 | [9] 0.468 | [10] 0.083 | [11] -0.075 | [13] -0.143 | [15] -0.041 | [16] 0.499 | [17] 0.372

RBM4 isoform 3 (UniProt Q9BWF3)
inactive: [11] 0.114 | [16] 0.016

RBM12B (UniProt Q8IXT5)
inactive: [2] -0.089 | [19] -0.055 | [20] 0.008 | [10] -0.107 | [17] 0.052

REST (UniProt Q13127)
inactive: [2] -0.021 | [3] -0.097 | [4] -0.063 | [5] 0.002 | [8] 0.029 | [9] 0.01 | [11] -0.074 | [13] -0.021 | [16] -0.053

RBM20 (UniProt Q5T481)
inactive: [2] 0.086 | [3] 0.005 | [4] -0.012 | [5] -0.212 | [19] -0.02 | [20] 0.185 | [10] 0.03 | [13] -0.145 | [17] -0.046

Reprinted from the listing (5 entries):
RBX1 (UniProt P62877)
inactive: [2] 0.09 | [3] 0.037 | [4] 0.025 | [5] 0.035 | [6] -0.025 | [7] -0.026 | [19] 0.079 | [8] -0.187 | [20] -0.045 | [9] 0.468 | [10] 0.083 | [11] -0.075 | [13] -0.143 | [15] -0.041 | [16] 0.499 | [17] 0.372

RBM4 isoform 3 (UniProt Q9BWF3)
inactive: [11] 0.114 | [16] 0.016

RBM12B (UniProt Q8IXT5)
inactive: [2] -0.089 | [19] -0.055 | [20] 0.008 | [10] -0.107 | [17] 0.052

REST (UniProt Q13127)
inactive: [2] -0.021 | [3] -0.097 | [4] -0.063 | [5] 0.002 | [8] 0.029 | [9] 0.01 | [11] -0.074 | [13] -0.021 | [16] -0.053

RBM20 (UniProt Q5T481)
inactive: [2] 0.086 | [3] 0.005 | [4] -0.012 | [5] -0.212 | [19] -0.02 | [20] 0.185 | [10] 0.03 | [13] -0.145 | [17] -0.046

(listing goes on)

RHBDD2 isoform 2 (UniProt Q6NTF9)
inactive: [2] 0.276 | [3] 0.058

RASGRP2 isoform 2 (UniProt Q7LDG7)
inactive: [19] 0.118 | [20] -0.026

RBBP5 isoform 2 (UniProt Q15291)
inactive: [2] -0.01 | [4] -0.191 | [5] 0.025 | [6] -0.131 | [7] -0.24 | [19] 0.172 | [8] 0.037 | [20] -0.342 | [9] -0.203 | [10] -0.084 | [11] -0.091 | [13] -0.069 | [15] -0.011 | [16] -0.013 | [17] 0.073

RCOR2 (UniProt Q8IZ40)
inactive: [2] -0.146

RBM4B (UniProt Q9BQ04)
inactive: [11] -0.007 | [16] 0.13

RFNG (UniProt Q9Y644)
inactive: [19] -0.003 | [20] 0.424
